The effect of the compound repeats well; differences between the knockouts mostly do not.
Tested on: HCC-38
Assay: relative cell number vs DMSO control (72 h) (% of DMSO); higher = less growth inhibition (more cells)
Experimental: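 QMAP-Seq: a pool of 5 breast cancer cell lines (ZR-75-1, SKBR3, HCC-38, MDA-MB-231, BT-20), each carrying 12 doxycycline-inducible Cas9 sgRNA perturbations (11 knockouts plus non-targeting sgNT), was treated with compounds for 72 h at four 10-fold doses (10 nM-10 uM or 1 nM-1 uM range). Barcodes were amplified and sequenced, and cell number was interpolated from 293T spike-in standard curves. The result is expressed as % of the median of DMSO wells. Two biological replicates.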

COc1cc2c(Oc3ccc4[nH]c(C)cc4c3F)ncnc2cc1OCCCN1CCCC1 [Cediranib]
Conditions	relative cell number
sgRNA knockout: sgATF3, 10 nM	121
sgRNA knockout: sgATF3, 100 nM	111
sgRNA knockout: sgATF3, 1000 nM	67.9
sgRNA knockout: sgATF3, 10000 nM	9.08
sgRNA knockout: sgATF4, 10 nM	121
sgRNA knockout: sgATF4, 100 nM	106
sgRNA knockout: sgATF4, 1000 nM	61.1
sgRNA knockout: sgATF4, 10000 nM	8.09
sgRNA knockout: sgATF6, 10 nM	124
sgRNA knockout: sgATF6, 100 nM	118
sgRNA knockout: sgATF6, 1000 nM	80.4
sgRNA knockout: sgATF6, 10000 nM	6.79
sgRNA knockout: sgATG7, 10 nM	117
sgRNA knockout: sgATG7, 100 nM	108
sgRNA knockout: sgATG7, 1000 nM	74.5
sgRNA knockout: sgATG7, 10000 nM	10.1
sgRNA knockout: sgERN1, 10 nM	114
sgRNA knockout: sgERN1, 100 nM	113
sgRNA knockout: sgERN1, 1000 nM	71.4
sgRNA knockout: sgERN1, 10000 nM	8.27
sgRNA knockout: sgHSF1, 10 nM	124
sgRNA knockout: sgHSF1, 100 nM	127
sgRNA knockout: sgHSF1, 1000 nM	78.4
sgRNA knockout: sgHSF1, 10000 nM	10.16
sgRNA knockout: sgHSF2, 10 nM	133
sgRNA knockout: sgHSF2, 100 nM	122
sgRNA knockout: sgHSF2, 1000 nM	77.6
sgRNA knockout: sgHSF2, 10000 nM	10.6
sgRNA knockout: sgKEAP1, 10 nM	160
sgRNA knockout: sgKEAP1, 100 nM	125
sgRNA knockout: sgKEAP1, 1000 nM	95
sgRNA knockout: sgKEAP1, 10000 nM	9.64
sgRNA knockout: sgNFE2L2, 10 nM	112
sgRNA knockout: sgNFE2L2, 100 nM	101
sgRNA knockout: sgNFE2L2, 1000 nM	59.1
sgRNA knockout: sgNFE2L2, 10000 nM	8.261
sgRNA knockout: sgSLC35F2, 10 nM	118
sgRNA knockout: sgSLC35F2, 100 nM	106
sgRNA knockout: sgSLC35F2, 1000 nM	67.1
sgRNA knockout: sgSLC35F2, 10000 nM	7.25
sgRNA knockout: sgXBP1, 10 nM	117
sgRNA knockout: sgXBP1, 100 nM	112
sgRNA knockout: sgXBP1, 1000 nM	70.2
sgRNA knockout: sgXBP1, 10000 nM	7.49

CN/C(=N\CCSCc1nc[nH]c1C)NC#N [Cimetidine]
Conditions	relative cell number
sgRNA knockout: sgATF3, 10 nM	108
sgRNA knockout: sgATF3, 100 nM	102
sgRNA knockout: sgATF3, 1000 nM	98.81
sgRNA knockout: sgATF3, 10000 nM	104
sgRNA knockout: sgATF4, 10 nM	103
sgRNA knockout: sgATF4, 100 nM	105
sgRNA knockout: sgATF4, 1000 nM	94.1
sgRNA knockout: sgATF4, 10000 nM	96.9
sgRNA knockout: sgATF6, 10 nM	113
sgRNA knockout: sgATF6, 100 nM	96
sgRNA knockout: sgATF6, 1000 nM	123
sgRNA knockout: sgATF6, 10000 nM	134
sgRNA knockout: sgATG7, 10 nM	102
sgRNA knockout: sgATG7, 100 nM	111
sgRNA knockout: sgATG7, 1000 nM	96
sgRNA knockout: sgATG7, 10000 nM	98.1
sgRNA knockout: sgERN1, 10 nM	101.7
sgRNA knockout: sgERN1, 100 nM	108
sgRNA knockout: sgERN1, 1000 nM	98.2
sgRNA knockout: sgERN1, 10000 nM	116
sgRNA knockout: sgHSF1, 10 nM	104
sgRNA knockout: sgHSF1, 100 nM	114
sgRNA knockout: sgHSF1, 1000 nM	117
sgRNA knockout: sgHSF1, 10000 nM	140
sgRNA knockout: sgHSF2, 10 nM	103
sgRNA knockout: sgHSF2, 100 nM	113
sgRNA knockout: sgHSF2, 1000 nM	110
sgRNA knockout: sgHSF2, 10000 nM	106
sgRNA knockout: sgKEAP1, 10 nM	129
sgRNA knockout: sgKEAP1, 100 nM	110
sgRNA knockout: sgKEAP1, 1000 nM	118
sgRNA knockout: sgKEAP1, 10000 nM	134
sgRNA knockout: sgNFE2L2, 10 nM	100
sgRNA knockout: sgNFE2L2, 100 nM	101
sgRNA knockout: sgNFE2L2, 1000 nM	98.1
sgRNA knockout: sgNFE2L2, 10000 nM	102
sgRNA knockout: sgSLC35F2, 10 nM	99.4
sgRNA knockout: sgSLC35F2, 100 nM	110
sgRNA knockout: sgSLC35F2, 1000 nM	91
sgRNA knockout: sgSLC35F2, 10000 nM	104
sgRNA knockout: sgXBP1, 10 nM	98.2
sgRNA knockout: sgXBP1, 100 nM	109
sgRNA knockout: sgXBP1, 1000 nM	97.6
sgRNA knockout: sgXBP1, 10000 nM	97.4

O=P1(N(CCCl)CCCl)NCCCO1 (configuration not stated) [Cyclophosphamide]
Conditions	relative cell number
sgRNA knockout: sgATF3, 10 nM	101
sgRNA knockout: sgATF3, 100 nM	93.3
sgRNA knockout: sgATF3, 1000 nM	102
sgRNA knockout: sgATF3, 10000 nM	92.44
sgRNA knockout: sgATF4, 10 nM	91.2
sgRNA knockout: sgATF4, 100 nM	86.39
sgRNA knockout: sgATF4, 1000 nM	106
sgRNA knockout: sgATF4, 10000 nM	95.1
sgRNA knockout: sgATF6, 10 nM	102
sgRNA knockout: sgATF6, 100 nM	109
sgRNA knockout: sgATF6, 1000 nM	106
sgRNA knockout: sgATF6, 10000 nM	106
sgRNA knockout: sgATG7, 10 nM	89.9
sgRNA knockout: sgATG7, 100 nM	86.9
sgRNA knockout: sgATG7, 1000 nM	98.8
sgRNA knockout: sgATG7, 10000 nM	91.8
sgRNA knockout: sgERN1, 10 nM	83.9
sgRNA knockout: sgERN1, 100 nM	97.4
sgRNA knockout: sgERN1, 1000 nM	99
sgRNA knockout: sgERN1, 10000 nM	97.2
sgRNA knockout: sgHSF1, 10 nM	86.45
sgRNA knockout: sgHSF1, 100 nM	106
sgRNA knockout: sgHSF1, 1000 nM	96.2
sgRNA knockout: sgHSF1, 10000 nM	108
sgRNA knockout: sgHSF2, 10 nM	91
sgRNA knockout: sgHSF2, 100 nM	106
sgRNA knockout: sgHSF2, 1000 nM	105
sgRNA knockout: sgHSF2, 10000 nM	96.8
sgRNA knockout: sgKEAP1, 10 nM	92.7
sgRNA knockout: sgKEAP1, 100 nM	100
sgRNA knockout: sgKEAP1, 1000 nM	122
sgRNA knockout: sgKEAP1, 10000 nM	114
sgRNA knockout: sgNFE2L2, 10 nM	88.2
sgRNA knockout: sgNFE2L2, 100 nM	85.8
sgRNA knockout: sgNFE2L2, 1000 nM	106
sgRNA knockout: sgNFE2L2, 10000 nM	96.4
sgRNA knockout: sgSLC35F2, 10 nM	83
sgRNA knockout: sgSLC35F2, 100 nM	94.2
sgRNA knockout: sgSLC35F2, 1000 nM	102
sgRNA knockout: sgSLC35F2, 10000 nM	98.7
sgRNA knockout: sgXBP1, 10 nM	93.8
sgRNA knockout: sgXBP1, 100 nM	89.7
sgRNA knockout: sgXBP1, 1000 nM	105
sgRNA knockout: sgXBP1, 10000 nM	101

— the supplement of paper PMC7661543
